Measurements reported in PubChem BioAssay AID504764 (Drosophila RNAi Screening Center, 2011).

Purpose: 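Genome-wide screen for regulators of Notch-driven gene expression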 (primary screen)
System: Drosophila Kc167 cells
Reagents: long dsRNA against Drosophila genes
Time to read-out: about 5 days (4 days dsRNA, then 24 h after transfection)
Treatment: transfection of constitutively active membrane-tethered Notch lacking the extracellular domain, read 24 h later
Detection: 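Light from a Notch-responsive E(spl)m3 luciferase reporter under active Notch, with control-promoter and no-Notch reporter wells to normalise; raw counts from paired wells a and b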
Direction: induced reporter light, run 1, well a and induced reporter light, run 1, well b: higher = more light from the Notch target reporter with active Notch; control promoter light, run 1, well a and control promoter light, run 1, well b: higher = more light from the viral control promoter (cell number, transfection, viability); uninduced reporter light, run 1, well a: higher = more light from the Notch target reporter without active Notch
Hit rule: 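Wells with low control signal or poorly matching duplicates excluded; duplicates averaged; per source plate, z beyond ±2 for induced/control log2 ratio or beyond ±1.8 for induced/uninduced marks a hit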
Meaning of the calls: active = modifier hit (raised or lowered Notch signal); inactive = not a hit
In all, the deposit lists about 22,000 reagents; this is a random part of those that have a named target and a result. Of all reagents, 403 (1.9%) were called active. 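Unnormalised raw counts per well; ratio z-scores behind the hit calls and whether each hit raises or lowers signal are not deposited.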 Not given: the amount of reagent.

Depletion of Cyp12a4 [DRSC16620] came out at: induced reporter light, run 1, well a = 1.96e5; induced reporter light, run 1, well b = 1.72e5; control promoter light, run 1, well a = 1.68e5; control promoter light, run 1, well b = 1.71e5; uninduced reporter light, run 1, well a = 14790; inactive.
After knock-down of CG8245 [DRSC04901] the results were induced reporter light, run 1, well a = 1.21e5; induced reporter light, run 1, well b = 1.29e5; control promoter light, run 1, well a = 1.42e5; control promoter light, run 1, well b = 1.41e5; uninduced reporter light, run 1, well a = 9695; inactive.
For Mat1 [DRSC07465], the values are induced reporter light, run 1, well a = 1.54e5; induced reporter light, run 1, well b = 1.77e5; control promoter light, run 1, well a = 2.17e5; control promoter light, run 1, well b = 2.72e5; uninduced reporter light, run 1, well a = 15532; inactive.
CG5727 [DRSC02882] gave induced reporter light, run 1, well a = 2.19e5; induced reporter light, run 1, well b = 2.32e5; control promoter light, run 1, well a = 1.73e5; control promoter light, run 1, well b = 2.15e5; uninduced reporter light, run 1, well a = 16790; inactive.
Depletion of CG40282 (retired record) [DRSC07814] came out at: induced reporter light, run 1, well a = 99370; induced reporter light, run 1, well b = 1.25e5; control promoter light, run 1, well a = 2.18e5; control promoter light, run 1, well b = 1.93e5; uninduced reporter light, run 1, well a = 7878; inactive.
dlg1 [DRSC18895] gave induced reporter light, run 1, well a = 62890; induced reporter light, run 1, well b = 62295; control promoter light, run 1, well a = 37160; control promoter light, run 1, well b = 28950; uninduced reporter light, run 1, well a = 4695; inactive.
After knock-down of dlg1 [DRSC18896], the screen gave induced reporter light, run 1, well a = 92905; induced reporter light, run 1, well b = 81240; control promoter light, run 1, well a = 83285; control promoter light, run 1, well b = 69895; uninduced reporter light, run 1, well a = 7070; inactive.
With knock-down of dlg1 [DRSC19767], the screen gave induced reporter light, run 1, well a = 69035; induced reporter light, run 1, well b = 55890; control promoter light, run 1, well a = 83760; control promoter light, run 1, well b = 93505; uninduced reporter light, run 1, well a = 6125; inactive.
Against dlg1 [DRSC20324], the values are induced reporter light, run 1, well a = 1.93e5; induced reporter light, run 1, well b = 1.84e5; control promoter light, run 1, well a = 1.90e5; control promoter light, run 1, well b = 2.28e5; uninduced reporter light, run 1, well a = 12070; inactive.

Records listed so far whose gene name begins with C or c (4):
Cyp12a4 [DRSC16620] — induced reporter light, run 1, well a = 1.96e5; induced reporter light, run 1, well b = 1.72e5; control promoter light, run 1, well a = 1.68e5; control promoter light, run 1, well b = 1.71e5; uninduced reporter light, run 1, well a = 14790; activity call = inactive
CG8245 [DRSC04901] — induced reporter light, run 1, well a = 1.21e5; induced reporter light, run 1, well b = 1.29e5; control promoter light, run 1, well a = 1.42e5; control promoter light, run 1, well b = 1.41e5; uninduced reporter light, run 1, well a = 9695; activity call = inactive
CG5727 [DRSC02882] — induced reporter light, run 1, well a = 2.19e5; induced reporter light, run 1, well b = 2.32e5; control promoter light, run 1, well a = 1.73e5; control promoter light, run 1, well b = 2.15e5; uninduced reporter light, run 1, well a = 16790; activity call = inactive
CG40282 (retired record) [DRSC07814] — induced reporter light, run 1, well a = 99370; induced reporter light, run 1, well b = 1.25e5; control promoter light, run 1, well a = 2.18e5; control promoter light, run 1, well b = 1.93e5; uninduced reporter light, run 1, well a = 7878; activity call = inactive

The listing continues.
Silencing of oys [DRSC05203] resulted in: induced reporter light, run 1, well a = 85585; induced reporter light, run 1, well b = 1.01e5; control promoter light, run 1, well a = 1.24e5; control promoter light, run 1, well b = 1.33e5; uninduced reporter light, run 1, well a = 4605; inactive.
oys [DRSC06751] gave induced reporter light, run 1, well a = 1.10e5; induced reporter light, run 1, well b = 1.34e5; control promoter light, run 1, well a = 97870; control promoter light, run 1, well b = 98620; uninduced reporter light, run 1, well a = 13120; inactive.
With knock-down of CG15141 [DRSC02441], the screen gave induced reporter light, run 1, well a = 2.91e5; induced reporter light, run 1, well b = 2.22e5; control promoter light, run 1, well a = 2.17e5; control promoter light, run 1, well b = 2.48e5; uninduced reporter light, run 1, well a = 19325; inactive.
With knock-down of CG15141 [DRSC02442] the results were induced reporter light, run 1, well a = 1.42e5; induced reporter light, run 1, well b = 1.48e5; control promoter light, run 1, well a = 1.43e5; control promoter light, run 1, well b = 1.40e5; uninduced reporter light, run 1, well a = 10005; inactive.
With knock-down of CheA29a [DRSC21486], the record shows inactive.
Rad9 [DRSC11263] scored induced reporter light, run 1, well a = 95480; induced reporter light, run 1, well b = 1.16e5; control promoter light, run 1, well a = 59770; control promoter light, run 1, well b = 71615; uninduced reporter light, run 1, well a = 7930; inactive.
Depletion of CG31296 [DRSC13092] came out at: induced reporter light, run 1, well a = 88330; induced reporter light, run 1, well b = 1.10e5; control promoter light, run 1, well a = 1.32e5; control promoter light, run 1, well b = 1.15e5; uninduced reporter light, run 1, well a = 6705; inactive.
Depletion of hog [DRSC19057] resulted in: induced reporter light, run 1, well a = 1.02e5; induced reporter light, run 1, well b = 1.10e5; control promoter light, run 1, well a = 1.09e5; control promoter light, run 1, well b = 1.09e5; uninduced reporter light, run 1, well a = 9790; inactive.
After knock-down of CG34425 [DRSC12210] the results were induced reporter light, run 1, well a = 61020; induced reporter light, run 1, well b = 41220; control promoter light, run 1, well a = 37245; control promoter light, run 1, well b = 36180; uninduced reporter light, run 1, well a = 3245; inactive.
